Assay results published in publication PMC4996946.
Results are given in words; binding and its absence hold for the method and conditions named. In cells and extracts the contact can be indirect. Some entries that bind do so weakly or less than the wild type. For some of these results: Sequences can lack the tags named with a protein.

Amino acid sequences for entries named in this document (tags omitted). A change or cut given only in a name is not applied to a line headed by its entry. Residues count along the entry.
UniProt Q03135: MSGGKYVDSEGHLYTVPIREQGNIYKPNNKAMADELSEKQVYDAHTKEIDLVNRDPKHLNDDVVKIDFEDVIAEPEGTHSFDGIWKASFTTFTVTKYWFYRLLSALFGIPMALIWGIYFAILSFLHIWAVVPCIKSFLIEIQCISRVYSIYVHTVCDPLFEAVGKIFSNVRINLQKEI
GST-Cav1(61–101): residues 61-101 of Q03135
UniProt Q14344: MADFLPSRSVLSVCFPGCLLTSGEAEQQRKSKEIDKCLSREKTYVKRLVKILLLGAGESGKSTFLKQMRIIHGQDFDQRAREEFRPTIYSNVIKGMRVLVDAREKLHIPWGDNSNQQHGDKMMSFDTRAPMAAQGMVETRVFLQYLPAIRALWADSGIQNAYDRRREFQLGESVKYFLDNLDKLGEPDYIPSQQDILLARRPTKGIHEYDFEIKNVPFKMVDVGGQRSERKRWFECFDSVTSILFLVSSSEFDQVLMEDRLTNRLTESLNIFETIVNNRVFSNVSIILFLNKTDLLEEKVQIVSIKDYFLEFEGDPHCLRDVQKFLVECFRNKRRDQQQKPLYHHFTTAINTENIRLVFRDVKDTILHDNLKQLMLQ
UniProt P61586: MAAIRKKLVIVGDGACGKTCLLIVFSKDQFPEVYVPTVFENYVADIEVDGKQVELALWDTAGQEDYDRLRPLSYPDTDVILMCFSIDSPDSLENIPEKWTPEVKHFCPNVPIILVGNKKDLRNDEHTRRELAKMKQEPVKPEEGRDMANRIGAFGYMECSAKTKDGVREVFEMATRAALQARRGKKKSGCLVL

Tests used:
GST-Cav1(FL) = GST-Cav1(FL) (UniProt Q03135); experiment: pull-down; GST-Cav1 on glutathione-Sepharose beads; lysates of COS cells transfected with hGα13 and/or hMURC-HA, incubated with GDP or GTPγS; blots with anti-Gα13 and anti-GST; only the target purified
GST-Cav1(61–101) = GST-Cav1(61–101) (UniProt Q03135); experiment: pull-down; 10 ug GST-Cav1 domain on glutathione-Sepharose beads; lysates of COS cells transfected with hMURC-FLAG or hGα13, 4 °C, 2 h; blots with anti-MURC or anti-Gα13; only the target purified
[1] = target: caveolin-1, endogenous in hPASMCs (human (endogenous in hPASMCs)) (UniProt Q03135); experiment: co-IP; hPASMCs transfected with control siRNA or MURC siRNA; Gα13 associated with Cav1
[2] = target: GST-Gα13 (pGEX-Gα13) (human) (UniProt Q14344); experiment: pull-down; 10 ug GST-Gα13 preloaded with GDP (1 mM) or GTPγS (0.1 mM) at 30 °C for 15 min, linked to glutathione-Sepharose beads; lysates of COS cells transfected with T7-Cav1, MURC-HA and/or p115RhoGEF-FLAG, 4 °C, 2 h; blots with anti-FLAG and anti-GST; only the target purified
[3] = target: T1, human caveolin-3 with a T7 tag (pcDNA3.1-T7-hCav3) (human) (UniProt P56539); experiment: co-IP; COS cells co-transfected; lysis in 50 mM Tris-HCl pH 8.0, 50 mM NaCl, 1% Nonidet P-40, 60 mM octyl glucoside; lysates incubated with antibody-coated magnetic beads (anti-tag antibodies) at 4 °C overnight; blots
T1 sequence: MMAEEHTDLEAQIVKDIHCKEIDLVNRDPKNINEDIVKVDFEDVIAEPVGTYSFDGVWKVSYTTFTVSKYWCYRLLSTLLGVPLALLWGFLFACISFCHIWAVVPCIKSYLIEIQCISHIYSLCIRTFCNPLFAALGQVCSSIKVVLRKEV

[4] = target: human caveolin-1 with a T7 tag (pcDNA3.1-T7-hCav1) (human) (UniProt Q03135); experiment: as above
[5] = target: T2, human p115RhoGEF with a FLAG tag (pCS2FLAG-hp115RhoGEF) (human) (UniProt Q92888); experiment: as above
T2 sequence: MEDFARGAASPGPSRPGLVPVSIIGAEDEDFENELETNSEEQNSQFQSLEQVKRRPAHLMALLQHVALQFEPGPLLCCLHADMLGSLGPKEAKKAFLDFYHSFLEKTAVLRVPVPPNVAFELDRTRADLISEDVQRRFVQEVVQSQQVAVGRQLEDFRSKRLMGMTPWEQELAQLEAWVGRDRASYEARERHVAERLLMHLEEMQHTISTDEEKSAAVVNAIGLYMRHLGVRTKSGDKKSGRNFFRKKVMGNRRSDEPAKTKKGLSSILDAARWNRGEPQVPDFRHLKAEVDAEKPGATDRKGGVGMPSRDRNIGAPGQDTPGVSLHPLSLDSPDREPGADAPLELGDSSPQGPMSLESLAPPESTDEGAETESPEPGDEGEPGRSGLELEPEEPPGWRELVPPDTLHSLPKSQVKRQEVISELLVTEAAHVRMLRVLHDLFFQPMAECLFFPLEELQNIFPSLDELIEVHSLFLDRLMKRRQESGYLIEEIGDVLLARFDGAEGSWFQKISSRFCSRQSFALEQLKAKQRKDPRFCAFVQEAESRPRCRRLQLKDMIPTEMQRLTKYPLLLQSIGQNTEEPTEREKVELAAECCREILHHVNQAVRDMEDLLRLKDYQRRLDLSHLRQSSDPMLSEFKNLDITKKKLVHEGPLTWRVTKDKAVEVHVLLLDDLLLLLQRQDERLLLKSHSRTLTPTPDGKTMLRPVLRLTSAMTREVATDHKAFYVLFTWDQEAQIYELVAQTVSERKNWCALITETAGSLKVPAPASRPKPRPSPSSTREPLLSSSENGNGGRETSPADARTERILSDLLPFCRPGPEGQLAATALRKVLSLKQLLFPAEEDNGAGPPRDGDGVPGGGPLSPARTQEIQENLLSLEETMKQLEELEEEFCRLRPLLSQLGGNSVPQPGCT

[6] = target: human RhoA with a C-terminal HA epitope (pcDNA3.1-hRhoA-HA) (human) (UniProt P61586); experiment: as above
[7] = target: T3, human p115RhoGEF fused to the C-terminal fragment of monomeric Kusabira-Green (phmKGC-MN-hp115RhoGEF) (human) (UniProt Q92888); experiment: split reporter; BiFC with divided monomeric Kusabira-Green (CoralHue Fluo-chase Kit); pairs of plasmids cotransfected into hPASMCs; fluorescence in living cells after 24 h
T3 sequence: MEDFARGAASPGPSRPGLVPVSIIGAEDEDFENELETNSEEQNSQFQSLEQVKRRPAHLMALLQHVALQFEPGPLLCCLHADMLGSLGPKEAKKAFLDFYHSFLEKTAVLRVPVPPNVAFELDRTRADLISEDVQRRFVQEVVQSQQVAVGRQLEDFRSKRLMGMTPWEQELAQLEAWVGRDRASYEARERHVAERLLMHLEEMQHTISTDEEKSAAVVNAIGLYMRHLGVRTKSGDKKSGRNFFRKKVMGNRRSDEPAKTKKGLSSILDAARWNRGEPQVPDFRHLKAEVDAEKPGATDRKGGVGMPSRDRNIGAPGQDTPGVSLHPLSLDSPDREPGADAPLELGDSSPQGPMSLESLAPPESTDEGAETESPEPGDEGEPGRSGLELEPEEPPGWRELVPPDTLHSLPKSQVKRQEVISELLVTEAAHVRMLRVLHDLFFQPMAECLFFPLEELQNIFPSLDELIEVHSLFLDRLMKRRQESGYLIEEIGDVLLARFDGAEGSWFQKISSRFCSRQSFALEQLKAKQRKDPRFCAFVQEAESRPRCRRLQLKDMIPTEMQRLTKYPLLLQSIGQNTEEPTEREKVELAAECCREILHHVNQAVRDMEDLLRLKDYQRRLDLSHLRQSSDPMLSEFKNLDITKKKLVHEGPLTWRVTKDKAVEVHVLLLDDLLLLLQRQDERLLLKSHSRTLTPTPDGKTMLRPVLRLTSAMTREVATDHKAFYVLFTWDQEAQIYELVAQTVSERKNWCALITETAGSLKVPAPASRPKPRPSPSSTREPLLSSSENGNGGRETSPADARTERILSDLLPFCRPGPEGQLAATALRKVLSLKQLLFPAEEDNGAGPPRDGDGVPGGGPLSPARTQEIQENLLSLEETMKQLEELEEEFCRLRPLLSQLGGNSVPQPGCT

[8] = target: human caveolin-1 fused to the N-terminal fragment of monomeric Kusabira-Green (phmKGN-MC-hCav1) (human) (UniProt Q03135); experiment: as above
[9] = target: T4, human caveolin-3 fused to the C-terminal fragment of monomeric Kusabira-Green (phmKGC-MN-hCav3) (human) (UniProt P56539); experiment: as above
T4 sequence: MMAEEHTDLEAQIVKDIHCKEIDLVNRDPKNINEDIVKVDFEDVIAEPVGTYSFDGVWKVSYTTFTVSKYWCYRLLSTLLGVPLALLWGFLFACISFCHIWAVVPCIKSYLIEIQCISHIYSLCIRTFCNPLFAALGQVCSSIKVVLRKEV

In the case of “human Gα13 (pcDNA3.1-hGα13) (from UniProt Q14344 1-377)”, the binding (GST-Cav1(FL)) is reported as “binds” and the binding (GST-Cav1(61–101)) is reported as “binds”.

In the case of “Gα13, endogenous in hPASMCs (from UniProt Q14344 1-377)”, the binding [1] is reported as “binds”.

For “human caveolin-1 with a T7 tag (pcDNA3.1-T7-hCav1) (from UniProt Q03135 1-178)”, the binding [2] was “binds”.

B1: human MURC/Cavin-4 with a C-terminal HA epitope (pcDNA3.1-hMURC-HA) (protein, UniProt Q5BKX8 1-364)
chain: MEHNGSASNADKIHQNRLSSVTEDEDQDAALTIVTVLDKVASIVDSVQASQKRIEERHREMENAIKSVQIDLLKLSQSHSNTGHIINKLFEKTRKVSAHIKDVKARVEKQQIHVKKVEVKQEEIMKKNKFRVVIFQEKFRCPTSLSVVKDRNLTENQEEDDDDIFDPPVDLSSDEEYYVEESRSARLRKSGKEHIDNIKKAFSKENMQKTRQNLDKKVNRIRTRIVTPERRERLRQSGERLRQSGERLRQSGERFKKSISNAAPSKEAFKMRSLRKGKDRTVAEGEECAREMGVDIIARSESLGPISELYSDELSEPEHEAARPVYPPHEGREIPTPEPLKVTFKSQVKVEDDESLLLDLKHSS
B1 was tested, and the binding (GST-Cav1(FL)) was “binds”, the binding [3] was “binds” and the binding [4] was “binds”. For the same molecule, the binding [5] was “binds”.

B2: human MURC/Cavin-4 with a C-terminal FLAG epitope (pcDNA3.1-hMURC-FLAG) (protein, UniProt Q5BKX8 1-364)
chain: MEHNGSASNADKIHQNRLSSVTEDEDQDAALTIVTVLDKVASIVDSVQASQKRIEERHREMENAIKSVQIDLLKLSQSHSNTGHIINKLFEKTRKVSAHIKDVKARVEKQQIHVKKVEVKQEEIMKKNKFRVVIFQEKFRCPTSLSVVKDRNLTENQEEDDDDIFDPPVDLSSDEEYYVEESRSARLRKSGKEHIDNIKKAFSKENMQKTRQNLDKKVNRIRTRIVTPERRERLRQSGERLRQSGERLRQSGERFKKSISNAAPSKEAFKMRSLRKGKDRTVAEGEECAREMGVDIIARSESLGPISELYSDELSEPEHEAARPVYPPHEGREIPTPEPLKVTFKSQVKVEDDESLLLDLKHSS
For B2, the binding [6] was “binds” and the binding (GST-Cav1(61–101)) was “binds”.

B3: human MURC fused to the N-terminal fragment of monomeric Kusabira-Green (phmKGN-MC-hMURC) (protein, UniProt Q5BKX8 1-364)
chain: MEHNGSASNADKIHQNRLSSVTEDEDQDAALTIVTVLDKVASIVDSVQASQKRIEERHREMENAIKSVQIDLLKLSQSHSNTGHIINKLFEKTRKVSAHIKDVKARVEKQQIHVKKVEVKQEEIMKKNKFRVVIFQEKFRCPTSLSVVKDRNLTENQEEDDDDIFDPPVDLSSDEEYYVEESRSARLRKSGKEHIDNIKKAFSKENMQKTRQNLDKKVNRIRTRIVTPERRERLRQSGERLRQSGERLRQSGERFKKSISNAAPSKEAFKMRSLRKGKDRTVAEGEECAREMGVDIIARSESLGPISELYSDELSEPEHEAARPVYPPHEGREIPTPEPLKVTFKSQVKVEDDESLLLDLKHSS
For B3, the binding [7] was “binds”.

B4: human MURC fused to the C-terminal fragment of monomeric Kusabira-Green (phmKGC-MC-hMURC) (protein, UniProt Q5BKX8 1-364)
chain: MEHNGSASNADKIHQNRLSSVTEDEDQDAALTIVTVLDKVASIVDSVQASQKRIEERHREMENAIKSVQIDLLKLSQSHSNTGHIINKLFEKTRKVSAHIKDVKARVEKQQIHVKKVEVKQEEIMKKNKFRVVIFQEKFRCPTSLSVVKDRNLTENQEEDDDDIFDPPVDLSSDEEYYVEESRSARLRKSGKEHIDNIKKAFSKENMQKTRQNLDKKVNRIRTRIVTPERRERLRQSGERLRQSGERLRQSGERFKKSISNAAPSKEAFKMRSLRKGKDRTVAEGEECAREMGVDIIARSESLGPISELYSDELSEPEHEAARPVYPPHEGREIPTPEPLKVTFKSQVKVEDDESLLLDLKHSS
In the case of B4, the binding [8] is reported as “binds”.

B5: human MURC fused to the N-terminal fragment of monomeric Kusabira-Green (phmKGN-MN-hMURC) (protein, UniProt Q5BKX8 1-364)
chain: MEHNGSASNADKIHQNRLSSVTEDEDQDAALTIVTVLDKVASIVDSVQASQKRIEERHREMENAIKSVQIDLLKLSQSHSNTGHIINKLFEKTRKVSAHIKDVKARVEKQQIHVKKVEVKQEEIMKKNKFRVVIFQEKFRCPTSLSVVKDRNLTENQEEDDDDIFDPPVDLSSDEEYYVEESRSARLRKSGKEHIDNIKKAFSKENMQKTRQNLDKKVNRIRTRIVTPERRERLRQSGERLRQSGERLRQSGERFKKSISNAAPSKEAFKMRSLRKGKDRTVAEGEECAREMGVDIIARSESLGPISELYSDELSEPEHEAARPVYPPHEGREIPTPEPLKVTFKSQVKVEDDESLLLDLKHSS
For B5, the binding [9] was “binds”.
